2 molecules from paper PMC5603617 can be followed below.

These are yes or no findings as the source states them, for the method shown. In cells and extracts the contact can be indirect. Here binding means that the protein was enriched with, or labelled near, the bait; the list need not be complete.

The target of the assay is TnBVANK1 protein, V5-tagged (from pIZT/V5-His-ANK1) (Toxoneuron nigriceps bracovirus (TnBV)). Description: affinity purification with mass spectrometry; total protein extract of S2 cells stably expressing V5-tagged TnBVANK1, pre-cleaned on underivatised agarose beads; immunoprecipitated overnight on anti-V5 agarose-conjugated antibody; washed with lysis buffer with 150 mmol/l NaCl; eluted with V5 …; SDS-PAGE bands identified by LC-MS/MS; differential analysis against control S2 cells.

B1: ALG-2 interacting protein X (protein, UniProt Q9VB05 1-836)
chain: MSKFLGVPLKKPSEVDVIKPLNNLIQSTYNGASEEEKGKYGEAVNEFSKQRNTAIWKFFEKYEASLEIVYAYYDQICALETKISVSELQIPFKWKDAFDKGSIFGGKISLTHTSLLYEKVCVLFNIAALQSNIAANQSLDSDDGLKLTIKLLQQSAGIFQYLKGATPAAVPSEPTPDLSQDTLTVLQALMVAQAQEVFILKAIKDNLKDQIIAKLCCQAEESYADVLRAMQKESVRSLWEKEWIPTIAGKQAGFHALTQLYQSLVCRAAKKIGEEIARLRNAIDLFKAAQTRSGNETYLDEYFSRAKRNLTESTKDNEFIYNEIIPELSTLTSPGKAQLAKPLPIAVPLAENFKDIFSSLVPVELHRALTASDMRRNEIVNVEIMKLREATQTLNAVLASLNLPAAVETADGNSGLPPSLKEKANEVRQKGGIENVQTMLKDLPELLNRNREILDETERLLDEERDSDNQLRAQFKDRWTRISSDKLTEMFRTNAKKYREVITNAIEADKVVRQKFEANQKGIQLLSLPPDQIQQSLPSASGSVDPNCSSVQRLKKLMDDVETIKAEREAIESELKGATFNMKDEFLIALQKDGAIDEPALSLARIGQVLNPLQQQVRESVERQQSLVSEIQSAHGAFVSETGSCGSSRDTLYQELATAFDSYIELSGNLQEGTKFYNDLTQLLVVFQNKISDFVFARKTEKEELLKDLTTESSRQACPATPALPSHYASTSGSGSDIPPGSAPSVPPAASTANIPYPAQVQGMPIPYGAQPGVPYPAYVPAPMPQSFNPYATLPYPGNYQYQGFPQGPPPGHYGTYPGSYANQQGGYPNQKPPGW
For the molecule B1, the binding result is “binds”.

B2: NF-κB p110 subunit (protein, UniProt Q94527-1 1-971)
chain: MNMNQYYDLDNGKNVMFMNDASSTSGYSSSTSPNSTNRSFSPAHSPKTMELQTDFANLNLPGGNSPHQPPMANSPYQNQLLNNGGICQLGATNLINSTGVSFGVANVTSFGNMYMDHQYFVPAPATVPPSQNFGYHQNGLASDGDIKHVPQLRIVEQPVEKFRFRYKSEMHGTHGSLNGANSKRTPKTFPEVTLCNYDGPAVIRCSLFQTNLDSPHSHQLVVRKDDRDVCDPHDLHVSKERGYVAQFINMGIIHTAKKYIFEELCKKKQDRLVFQMNRRELSHKQLQELHQETEREAKDMNLNQVRLCFEAFKIEDNGAWVPLAPPVYSNAINNRKSAQTGELRIVRLSKPTGGVMGNDELILLVEKVSKKNIKVRFFEEDEDGETVWEAYAKFRESDVHHQYAIVCQTPPYKDKDVDREVNVYIELIRPSDDERSFPALPFRYKPRSVIVSRKRRRTGSSANSSSSGTESSNNSLDLPKTLGLAQPPNGLPNLSQHDQTISEEFGREKHLNEFIASEDFRKLIEHNSSDLEKICQLDMGELQHDGHNRAEVPSHRNRTIKCLDDLFEIYKQDRISPIKISHHKVEKWFIEHALNNYNRDTLLHEVISHKKDKLKLAIQTIQVMNYFNLKDVVNSTLNADGDSALHVACQQDRAHYIRPLLGMGCNPNLKNNAGNTPLHVAVKEEHLSCVESFLNGVPTVQLDLSLTNDDGLTPLHMAIRQNKYDVAKKLISYDRTSISVANTMDGNNALHMAVLEQSVELLVLILDAQNENLTDILQAQNAAGHTPLELAERKANDRVVQLLKNVYPEKGELAMTWIPCKVKEEIDSSSDESSDAGQLEIKSEEMDIETKDEDSVELDLSSGPRRQKDESSRDTEMDNNKLQLLLKNKFIYDRLCSLLNQPLGHGSDPQDRKWMQLARQTHLKQFAFIWLGAEDLLDHVKRKGASVEFSTFARALQAVDPQAYALLVNPT
As for B2, the binding entry is “binds”.
